At least one peptide structure holds a part that was inferred or is arguable (an end, a ring closure or a residue). For at least one compound, name, drawing or mass did not settle the structure. *1 amine or outer side, *2 acyl side, *3 side chain or, on linkers, in order; H or OH if unused. Where a SMILES comes first, the peptide text is derived from it. Bridges are numbered along the chain shown (N, C = ends). X1 = O=C(CCC[*:2])[*:1]
Tested on: rats
Test: Anxiolytic effect, elevated plus-maze assay
Type: in vivo
Conditions: for Closed Time / Open Time / Open Time (%): elevated plus-maze
Experimental: The anxiolytic effect of carbetocin and oxytocin was tested using the elevated plus-maze assay in rats as described in Holmes, A., et al., Behav. Neurosci. 115(5):1129-44, 2001. See also Sahuque, L., et al., Psychopharmacology 186(1):122-132, Berl, 2006; Carvalho, M. C., et al., Braz. Med. Biol. Res. 38(12):1857-66, 2005; and Langen, B., et al., J. Pharmacol. Exp. Ther. 314:717-724, 2005. Alprazolam, a known anxiety drug, was also included in the study. Sixty male, 6-10 week old experimentally naïve rats obtained from the Charles River laboratories were divided into six groups of ten animals each. All animals were maintained in compliance with the standards of the National Research Council and were fed certified rodent diet (Teklad, Madison, Wis.) and water ad libitum. The animals were housed in a dedicated study room with 12 hour light/12 hour dark at RT 18 to 26° C. and 30-70% humidity. Study animals were acclimated to their housing for at least 5 days prior to the first day of dosing. Routes of administration included intracerebroventricular (ICV), intraperitoneal (IP), or intramuscular (IM).
For the anxiolytic study, all groups were dosed by injection with formulations that contained the appropriate API in 0.9% saline solution. Alprazolam was an oral solution dosage form and diluted to the desired concentration in 0.9% saline for the anxiolytic study, Alprazolam Intensol™ Oral Solution (Concentrate) 1 mg/ml (each ml contains 1 mg Alprazolam).
The dosing preparations were administered once to each rat as a bolus. In the ICV administration group, test doses were administered into the lateral ventricle through a port in the already implanted ICV cannula. Testing was conducted 20 minutes after ICV and 30 minutes after IM and IP. The animals were tested for 15 minutes on the maze immediately following transport from the home cage.
The elevated plus maze consisted of a platform with 4 arms, two open and two closed (50×10×50 cm enclosed with an open roof). Rats were tested two at a time and placed by hand in the center of the platform of two separate mazes, at the crossroad of the 4 arms, facing one of the open arms. After fifteen minutes, the first rat was left for a few seconds until the second rat's fifteen minutes was completed. The rats were monitored remotely.
Prior to each rat's test, the plus-maze surfaces and closed sides were cleaned. Rats were handled by gloved hands. The time from removal from the home cage to start of testing was less than 15 seconds. Rats were gently removed from the home cage and placed onto the center square between the open and closed arms, and facing the opposite open arm. The rats were facing away from the experimenter. The experimenter moved away from the maze to an area not visible to the rat(s) and viewed the rat(s) via television monitor. At the end of the test the recorder was stopped and the rat(s) removed from the maze.
The rats were evaluated for time spent in open arm exploration (Open Time), time spent in closed arm exploration (Closed Time) and scored for anxiety according to the percent of time spent in open arm exploration ([time spent in open arms/time spent in open arms+time spent in closed arms×100]) (Open Time %); the absolute time spent in open arm exploration; and the percent of open arm entries ([number of open arm entries/number of open arm entries+number of closed arm entries]×100). The number of total arm entries was used as a measure of overall locomotor activity. The scores were compared to the vehicle controls and to the baseline using one-way ANOVA followed by the appropriate post-hoc test (Bonferroni/Dunnets) and a p<0.05 was considered to be statistically significant.

[1] = ICV route, tested 20 minutes after dosing
[2] = IM route, tested 30 minutes after dosing

CC[C@H](C)[C@@H]1NC(=O)[C@H](Cc2ccc(OC)cc2)NC(=O)CCCSC[C@@H](C(=O)N2CCC[C@H]2C(=O)N[C@@H](CC(C)C)C(=O)NCC(N)=O)NC(=O)[C@H](CC(N)=O)NC(=O)[C@H](CCC(N)=O)NC1=O [carbetocin, 1-butanoic acid-2-(O-methyl-L-tyrosine)-1-carbaoxytocin] (Y(Me)IQNCPLG-NH2; linker N-5 via X1 (inferred))
anxiety by Open Time and Open Time % in elevated plus-maze (ICV administration, compared to oxytocin): reduced anxiety
Closed Time [1]: 113.49
Open Time [1]: 64.68
Open Time (%) [1]: 36%
Closed Time [2]: 117.57
Open Time [2]: 34.31
Open Time (%) [2]: 23.6%
